Measurements reported in PubChem BioAssay AID1224830 (NIAID, 2016)
Purpose: 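Regulators of TLR4 signalling towards TNF-alpha in macrophage-like cells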 (primary screen). System: human THP-1 monocytic leukaemia cells, TNF dual-luciferase reporter clone, PMA-differentiated to macrophage-like cells. Reagent: siRNA pool against human genes, 50 nM. Time to read-out: LPS for 4 h, given about 3 days after siRNA transfection. Challenge: bacterial LPS (TLR4 ligand), 10 ng/ml. Detection: 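Ratio of firefly to renilla light, scaled to the plate median and expressed as a robust z-score per replicate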. Scale: TNF reporter robust z-score: higher = stronger TNF reporter response to LPS. Hit rule: 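Each well counts as active if its z-score is over 2.8 or under -1.5; controls are left without a call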.
The whole screen tested about 18,000 reagents; shown is a part drawn at random. In the full data, about 2,900 (16%) got an active call. 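Calls are made per well; low scores hint the gene aids the LPS response, high scores that it dampens it.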 Repeated entries: four replicate wells of each siRNA pool. Reagent sequences are not shown.

| gene knocked down | TNF reporter robust z-score | Call |
| --- | --- | --- |
| RMDN1 | 0.68 | inactive |
| RMDN1 | 0.54 | inactive |
| RMDN1 | 2.2 | inactive |
| RMDN1 | 4.05 | active |
| GAMT | 0.15 | inactive |
| GAMT | 0.08 | inactive |
| GAMT | -1.24 | inactive |
| GAMT | 0.57 | inactive |
| CEP41 | -0.97 | inactive |
| CEP41 | -0.5 | inactive |
| CEP41 | -1.47 | inactive |
| CEP41 | -1.23 | inactive |
| CCL1 | 2.75 | inactive |
| CCL1 | 2.82 | active |
| CCL1 | 2.28 | inactive |
| CCL1 | -0.85 | inactive |
| SAAL1 | -0.3 | inactive |
| SAAL1 | 3.48 | active |
| SAAL1 | 3.37 | active |
| SAAL1 | 0.2 | inactive |
| MICU2 | 0.28 | inactive |
| MICU2 | 0.65 | inactive |
| MICU2 | 1.07 | inactive |
| MICU2 | 2.17 | inactive |
| UBE3B | 0.2 | inactive |
| UBE3B | -0.57 | inactive |
| UBE3B | -0.89 | inactive |
| UBE3B | 0.13 | inactive |
| SMR3A | -0.73 | inactive |
| SMR3A | 0.2 | inactive |
| SMR3A | 0.72 | inactive |
| SMR3A | 1.17 | inactive |
| SH3BP2 | 0.6 | inactive |
| SH3BP2 | -1.07 | inactive |
| SH3BP2 | -0.93 | inactive |
| SH3BP2 | -0.33 | inactive |
| RNF151 | -0.69 | inactive |
| RNF151 | 0.69 | inactive |
| RNF151 | -0.36 | inactive |
| RNF151 | -1.01 | inactive |
| CFAP410 | -1.61 | active |
| CFAP410 | -1.51 | active |
| CFAP410 | -0.52 | inactive |
| CFAP410 | -1.06 | inactive |
| ITM2B | 0.19 | inactive |
| ITM2B | 1.6 | inactive |
| ITM2B | 0.78 | inactive |
| ITM2B | 1.24 | inactive |
| OR10G9 | 0.45 | inactive |
| OR10G9 | 0.67 | inactive |
| OR10G9 | 0.4 | inactive |
| OR10G9 | 0.48 | inactive |
| TMEM270 | -0.57 | inactive |
| TMEM270 | -0.79 | inactive |
| TMEM270 | -1.09 | inactive |
| TMEM270 | -0.68 | inactive |
| PPEF2 | 0.12 | inactive |
| PPEF2 | -1.07 | inactive |
| PPEF2 | 0.19 | inactive |
| PPEF2 | -1.1 | inactive |
| OR5M10 | -0.02 | inactive |
| OR5M10 | -0.33 | inactive |
| OR5M10 | -1.08 | inactive |
| OR5M10 | -0.73 | inactive |
| ACSF3 | 0.07 | inactive |
| ACSF3 | 1.33 | inactive |
| ACSF3 | -0.27 | inactive |
| ACSF3 | 1.01 | inactive |
| OR52A1 | -0.69 | inactive |
| OR52A1 | -0.72 | inactive |
| OR52A1 | -0.58 | inactive |
| OR52A1 | 0.36 | inactive |

Continued (12 carried over from the part before).
| gene knocked down | TNF reporter robust z-score | Call |
| --- | --- | --- |
| OR5M10 | -0.02 | inactive |
| OR5M10 | -0.33 | inactive |
| OR5M10 | -1.08 | inactive |
| OR5M10 | -0.73 | inactive |
| ACSF3 | 0.07 | inactive |
| ACSF3 | 1.33 | inactive |
| ACSF3 | -0.27 | inactive |
| ACSF3 | 1.01 | inactive |
| OR52A1 | -0.69 | inactive |
| OR52A1 | -0.72 | inactive |
| OR52A1 | -0.58 | inactive |
| OR52A1 | 0.36 | inactive |
| FGD2 | 1.04 | inactive |
| FGD2 | 1.07 | inactive |
| FGD2 | 1.3 | inactive |
| CD48 | 1.55 | inactive |
| CD48 | 0.53 | inactive |
| CD48 | 1.35 | inactive |
| CD48 | 2.03 | inactive |
| ACTR3B | -0.24 | inactive |
| ACTR3B | -0.09 | inactive |
| ACTR3B | -0.92 | inactive |
| ACTR3B | -0.71 | inactive |
| SHH | -0.56 | inactive |
| SHH | 4.18 | active |
| SHH | 0.84 | inactive |
| SHH | -0.1 | inactive |
| DLG1 | 1.2 | inactive |
| DLG1 | 1.58 | inactive |
| DLG1 | 1.1 | inactive |
| DLG1 | 2.76 | inactive |
| DLG1 | -0.62 | inactive |
| DLG1 | -1.08 | inactive |
| DLG1 | -0.45 | inactive |
| DLG1 | -0.18 | inactive |
| AP4M1 | 2 | inactive |
| AP4M1 | 1.66 | inactive |
| AP4M1 | 0.38 | inactive |
| AP4M1 | 1.11 | inactive |
| MED7 | -0.74 | inactive |
| MED7 | -1.35 | inactive |
| MED7 | -0.52 | inactive |
| MED7 | -1.67 | active |
| TNRC6B | -0.95 | inactive |
| TNRC6B | -0.63 | inactive |
| TNRC6B | -0.3 | inactive |
| TNRC6B | 0.8 | inactive |
| CAD | -0.25 | inactive |
| CAD | 1.79 | inactive |
| CAD | 1.46 | inactive |
| CAD | -0.78 | inactive |
